For this series, the system named is HLA molecules of primary tumors and normal tissue samples. Description: Identification and relative quantitation of HLA ligands by LC-MS (peptide presentation on tumor versus normal tissue). More on the design: species or system human. As to conditions: cancer entities on which the peptide was found presented (HLA ligands, LC-MS); abbreviations as in title of Table 8.

Turning to “104 (ITDTLIHL; listed as Homo sapiens) [compound 104]”, the “Peptide Presentation on cancer entities” value is “BRCA”.
As to “107 (TTENSGNYY; listed as Homo sapiens) [compound 107]”, the “Peptide Presentation on cancer entities” value is on record as “CLL”.
As for “108 (NSNLKFLEV; listed as Homo sapiens) [compound 108]”, the entry is “SCLC”; as for “109 (ISEDKSISF; listed as Homo sapiens) [compound 109]”, “CRC”.
Turning to “111 (TPIPFDKILY; listed as Homo sapiens) [compound 111]”, the “Peptide Presentation on cancer entities” value is “OSCAR”.
In the case of “112 (KASSVSAEDGY; listed as Homo sapiens) [compound 112]”, the “Peptide Presentation on cancer entities” value is listed as “GBM, UEC”.
On to “114 (AVAAAAGASLY; listed as Homo sapiens) [compound 114]”, for which the “Peptide Presentation on cancer entities” value is recorded as “AML, MEL, OSCAR”.
For “115 (NEIDIHSIYFY; listed as Homo sapiens) [compound 115]” the value was “OSCAR”; for “116 (RSDIGEFEW; listed as Homo sapiens) [compound 116]”, “AML”.
For “117 (SPAKQFNIY; listed as Homo sapiens) [compound 117]”, the “Peptide Presentation on cancer entities” value is on record as “GBC”.
Regarding “119 (TVFDENLSRY; listed as Homo sapiens) [compound 119]”, the “Peptide Presentation on cancer entities” value is given as “OSCAR”.
As for “121 (SADEAHGLL; listed as Homo sapiens) [compound 121]”, the entry is “MEL”; as for “122 (ISEAPLTEV; listed as Homo sapiens) [compound 122]”, “MEL”.
As for “123 (LLKAKDILY; listed as Homo sapiens) [compound 123]”, the entry is “HNSCC”.
As for “124 (FLKVTGYDKDDY; listed as Homo sapiens) [compound 124]”, the entry is “HCC”.
Turning to “126 (TTDPKKFQY; listed as Homo sapiens) [compound 126]”, the “Peptide Presentation on cancer entities” value is “MEL, NSCLCsquam, OC”.
For “127 (VPFNLITEY; listed as Homo sapiens) [compound 127]” the value was “MEL”.
For “128 (YTEFVDATFTK; listed as Homo sapiens) [compound 128]”, the “Peptide Presentation on cancer entities” value is on record as “HNSCC”.
For “130 (YIGLKGLYF; listed as Homo sapiens) [compound 130]”, the “Peptide Presentation on cancer entities” value is reported as “MEL”.
“131 (LEDGIEQSAY; listed as Homo sapiens) [compound 131]”: the “Peptide Presentation on cancer entities” value is “NHL”.
Consider “132 (RTHIGYKVY; listed as Homo sapiens) [compound 132]”, for which the “Peptide Presentation on cancer entities” value was “NSCLCsquam”.
As for “134 (SAPSSSGSPLY; listed as Homo sapiens) [compound 134]”, the entry is “NSCLCsquam”.
Take “136 (RRLNFSGFGY; listed as Homo sapiens) [compound 136]”: the “Peptide Presentation on cancer entities” value was “SCLC”.
As for “144 (RTIEGDFLW; listed as Homo sapiens) [compound 144]”, the entry is “GBM”; as for “145 (LSDAVHVEF; listed as Homo sapiens) [compound 145]”, “CLL”; as for “147 (AQVQDTGRY; listed as Homo sapiens) [compound 147]”, “MEL”.
As for “148 (GTKQWVHARY; listed as Homo sapiens) [compound 148]”, the “Peptide Presentation on cancer entities” value was “CLL”.
“149 (PIMSSSQALY; listed as Homo sapiens) [compound 149]”: the “Peptide Presentation on cancer entities” value is reported as “NSCLCsquam”.
Turning to “150 (FTTLSDLQTNMA; listed as Homo sapiens) [compound 150]”, the “Peptide Presentation on cancer entities” value is recorded as “HNSCC, MEL, NHL”.
As for “151 (YEVDTKLLSL; listed as Homo sapiens) [compound 151]”, the entry is “MEL”; as for “155 (HTMEVTVY; listed as Homo sapiens) [compound 155]”, “MEL”; as for “156 (STALSILLL; listed as Homo sapiens) [compound 156]”, “MEL”.
For “158 (EVTDRNMLAF; listed as Homo sapiens) [compound 158]”, the “Peptide Presentation on cancer entities” value was “HNSCC, OC, OSCAR”.
With “159 (RQAPGPARDY; listed as Homo sapiens) [compound 159]”, the “Peptide Presentation on cancer entities” value is recorded as “NSCLCsquam”.
Consider “160 (EVLGEEMYAY; listed as Homo sapiens) [compound 160]”, for which the “Peptide Presentation on cancer entities” value is given as “PRCA”.
As for “161 (EAAPDIMHY; listed as Homo sapiens) [compound 161]”, the “Peptide Presentation on cancer entities” value is “MEL, OSCAR”.
As for “162 (IADNPQLSFY; listed as Homo sapiens) [compound 162]”, the entry is “BRCA”.
With “163 (KIRAEVLSHY; listed as Homo sapiens) [compound 163]”, the “Peptide Presentation on cancer entities” value is on record as “CLL”.
For “165 (VSVYNSYPY; listed as Homo sapiens) [compound 165]” the value was “BRCA”; for “169 (TVDNANILL; listed as Homo sapiens) [compound 169]”, “UBC”; for “172 (FSEPFHLIV; listed as Homo sapiens) [compound 172]”, “MEL”.
As for “173 (QSTTGVSHY; listed as Homo sapiens) [compound 173]”, the entry is “CCC”; as for “174 (TSEVEGLAFVSY; listed as Homo sapiens) [compound 174]”, “NSCLCsquam”; as for “175 (GLEYEAPKLY; listed as Homo sapiens) [compound 175]”, “GBM”.
For “176 (HTDLESPSAVY; listed as Homo sapiens) [compound 176]”, the “Peptide Presentation on cancer entities” value is “HCC, UBC”.
For “180 (AQISDTGRY; listed as Homo sapiens) [compound 180]” the value was “MEL”.
As to “183 (LADTDLGMTF; listed as Homo sapiens) [compound 183]”, the “Peptide Presentation on cancer entities” value is “OSCAR”.
Consider “185 (NSDESADSEPHKY; listed as Homo sapiens) [compound 185]”, for which the “Peptide Presentation on cancer entities” value was “BRCA”.
For “189 (FRGVFVHRY; listed as Homo sapiens) [compound 189]” the value was “MEL”.
Turning to “190 (VSSTVHNLY; listed as Homo sapiens) [compound 190]”, the “Peptide Presentation on cancer entities” value was “BRCA”.
Take “191 (FTRAFDQLRM; listed as Homo sapiens) [compound 191]”: the “Peptide Presentation on cancer entities” value is “NSCLCadeno”.
Take “196 (RLAQYTIERY; listed as Homo sapiens) [compound 196]”: the “Peptide Presentation on cancer entities” value was “HCC”.
For “203 (LSQDELSKF; listed as Homo sapiens) [compound 203]” the value was “NSCLCsquam”; for “207 (LLEGEDAHLTQY; listed as Homo sapiens) [compound 207]”, “HNSCC”.
As for “209 (EADPFLKYL; listed as Homo sapiens) [compound 209]”, the entry is “AML”; as for “210 (LLEADPFLKY; listed as Homo sapiens) [compound 210]”, “AML”.
Take “211 (YLNEWGSRF; listed as Homo sapiens) [compound 211]”: the “Peptide Presentation on cancer entities” value is listed as “NSCLCadeno”.
Consider “212 (MMTDLTSVY; listed as Homo sapiens) [compound 212]”, for which the “Peptide Presentation on cancer entities” value is “MEL”.
Take “213 (VSDSTTEITY; listed as Homo sapiens) [compound 213]”: the “Peptide Presentation on cancer entities” value is “PACA”.
In the case of “214 (VQDPSLPVY; listed as Homo sapiens) [compound 214]”, the “Peptide Presentation on cancer entities” value was “NSCLCsquam”.
Regarding “215 (DTLEAATSLY; listed as Homo sapiens) [compound 215]”, the “Peptide Presentation on cancer entities” value is on record as “HCC”.
As for “217 (LMDEGAVLTL; listed as Homo sapiens) [compound 217]”, the entry is “HNSCC”; as for “219 (KTELETALYY; listed as Homo sapiens) [compound 219]”, “HCC”.
For “220 (DVERIKDTY; listed as Homo sapiens) [compound 220]” the value was “NSCLCsquam”; for “221 (TDVERIKDTY; listed as Homo sapiens) [compound 221]”, “HCC, NSCLCsquam”; for “222 (GSPDAVVSY; listed as Homo sapiens) [compound 222]”, “NSCLCsquam”.
As for “223 (NAVDVVPSSF; listed as Homo sapiens) [compound 223]”, the entry is “GBC”; as for “224 (RTDEGDNRVW; listed as Homo sapiens) [compound 224]”, “OSCAR”; as for “226 (QITPKHNGLY; listed as Homo sapiens) [compound 226]”, “NSCLCsquam, OC”.
On to “230 (CVIETFHKY; listed as Homo sapiens) [compound 230]”, for which the “Peptide Presentation on cancer entities” value was “GBC”.
Regarding “233 (RINSATGQY; listed as Homo sapiens) [compound 233]”, the “Peptide Presentation on cancer entities” value is given as “CLL”.
Consider “234 (YTDLTTIQV; listed as Homo sapiens) [compound 234]”, for which the “Peptide Presentation on cancer entities” value is on record as “HNSCC”.
As for “235 (SIEIDHTQY; listed as Homo sapiens) [compound 235]”, the entry is “CCC, MEL, NSCLCadeno”.

(Values after patent US12195506B2, “Immunotherapy with A*01 restricted peptides and combination of peptides against cancers and related methods” (Immatics Biotechnologies GmbH, priority 2018, dated 2025).)
